Drawing on PubChem BioAssay (NCATS), this text covers AC50 for 16 molecules.

Some of the results follow. Further columns of the screen follow, without active or inactive calls. The list favours compounds with an active or inconclusive main result. Words in brackets tell the shape of the fitted curve; partial curves, single points and poor fits give uncertain potencies.

This experiment in a line: S16 Schwann cell PMP22 intronic element beta-lactamase assay (AID 624044). The following applies: S16 rat Schwann cells, PMP22 element beta-lactamase FRET, 24 h; measured here: 530 nm viability channel. Summed up:
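Beta-lactamase reporter under a PMP22 intronic regulatory element in stable S16 rat Schwann cells; 24 h compound exposure. 460 nm blue signal normalized between DMSO (0%) and potassium clavulanate, with 535 nm FRET tracking viability; curves classed by r2 and response.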
In the case of `CCN1/C(=C/C=C/C=C/c2sc3ccccc3[n+]2CC)Sc2ccccc21`, the AC50 was 4.47 µM [falling, partial curve].
As for `C[C@H]1CC[C@]2(OC1)O[C@@H]1C[C@@H]3[C@@H]4CC[C@H]5C[C@@H](O)CC[C@]5(C)[C@@H]4CC(=O)[C@@]3(C)[C@H]1[C@@H]2C`, the AC50 was 10 µM [falling, partial curve].
With `CC[C@H](C)[C@H]1O[C@]2(CC[C@@H]1C)C[C@@H]1C[C@@H](C/C=C(\C)[C@H](O[C@@H]3C[C@H](OC)[C@H](O[C@@H]4C[C@H](OC)[C@@H](O)[C@H](C)O4)[C@H](C)O3)[C@@H](C)/C=C/C=C3\CO[C@@H]4[C@H](O)C(C)=C[C@@H](C(=O)O1)[C@]34O)O2` the figure was 31.6 µM [falling, single point]; with `COc1nc(N)nc2c1ncn2[C@@H]1O[C@H](CO)[C@@H](O)[C@@H]1O`, 12.6 µM [falling, single point]; with `Cc1ccccc1N1C(=O)c2cc(N)ccc2N/C1=C\F`, 1.12 µM [falling, full curve, poor fit].
As to `C[N+]12CCC(CC1)[C@@H](OC(=O)C(O)(c1ccccc1)c1ccccc1)C2`, the AC50 was 5.01 µM [falling, full curve, poor fit].
With `O=C(O)c1ccccc1-c1c2cc(Br)c(=O)c(Br)c-2oc2c(Br)c(O)c(Br)cc12` the figure was 15.8 µM [rising, partial curve].
With `CC(C)C[C@@H](NC(=O)[C@@H](Cc1ccccc1)NC(=O)c1cnccn1)B(O)O` the figure was 0.0224 µM [rising, full curve]; with `Cc1cc2nc3c(=O)[nH]c(=O)nc-3n(CC(O)C(O)C(O)CO)c2cc1C` (stereo unspecified), 12.6 µM [rising, full curve].
With `CO[C@H](C(=O)[C@@H](O)[C@@H](C)O)C1Cc2cc3cc(O[C@H]4C[C@@H](O[C@H]5C[C@@H](O)[C@H](O)[C@@H](C)O5)[C@@H](O)[C@@H](C)O4)c(C)c(O)c3c(O)c2C(=O)[C@H]1O[C@H]1C[C@@H](O[C@H]2C[C@@H](O[C@H]3C[C@](C)(O)[C@H](O)[C@@H](C)O3)[C@H](O)[C@@H](C)O2)[C@H](O)[C@@H](C)O1` (stereo partly specified) the figure was 17.8 µM [rising, partial curve]; with `Cc1[nH]cnc1CN1CCc2c(c3ccccc3n2C)C1=O`, 2.24 µM [falling, full curve]; with `CC1=CC(=C(c2ccc(N)cc2)c2ccc(N)cc2)C=CC1=N`, 3.55 µM [falling, full curve].
On to `O=C(O)c1ccc(OCCCOc2ccc(C(=O)O)cc2)cc1`, for which the AC50 was 0.112 µM [falling, full curve, poor fit].
With `CC(C)Cc1ccc([C@@H](C)C(=O)NS(C)(=O)=O)cc1` the figure was 1.12 µM [falling, full curve].
As for `NCC[C@H](O)C(=O)N[C@@H]1C[C@H](N)[C@@H](O[C@H]2O[C@H](CN)CC[C@H]2N)[C@H](O)[C@H]1O[C@H]1O[C@H](CO)[C@@H](O)[C@H](N)[C@H]1O`, the half-maximal activity concentration (AC50) was 12.6 µM [rising, single point].
With `CN=C(NC#N)Nc1ccc(C2=NNC(=O)CC2C)cc1` (stereo unspecified) the figure was 1.26 µM [falling, full curve, poor fit].

In general, AC50 refers to the concentration at which the activity in the assay is half-maximal. Read a high AC50 as weaker potency.
